Laboratory results: PubChem BioAssay AID1159584 (Peter MacCallum Cancer Centre, 2016)

Screen: 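Knock-downs that harm CDH1-null cells more than parental MCF10A cells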 (primary screen)
Cells: human MCF10A breast epithelial cells, parental and CDH1-null
Reagent: siRNA against human genes
Read-out: 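ATP luminescence (CellTiter-Glo) viability per line relative to mean mock wells over all plates, and the ratio of CDH1-null to parental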
Reading the numbers: CDH1-null / parental viability ratio: higher = CDH1-null cells survive relatively better than parental; CDH1-null viability vs mock: higher = more viable CDH1-null cells; parental viability vs mock: higher = more viable parental cells
Shown is a random part of about 18,000 reagents tested. Reagent sequences are not shown. Not stated in the record: the amount of reagent, the time to read-out.

gene | CDH1-null / parental viability ratio | CDH1-null viability vs mock (fraction of mock) | parental viability vs mock (fraction of mock)
SPMIP2 | 1.11 | 0.78 | 0.7
PRRX2 | 0.91 | 0.73 | 0.8
NUDT22 | 0.99 | 0.78 | 0.79
GUCA2B | 0.91 | 0.62 | 0.68
NALF2 | 1.02 | 0.82 | 0.8
CLPS | 1.45 | 0.71 | 0.49
NRCAM | 1.08 | 1.04 | 0.96
CHST7 | 1.07 | 0.74 | 0.69
F7 | 1.12 | 0.58 | 0.52
PPP1R3F | 0.88 | 0.81 | 0.92

The list goes on; the last 3 above are carried over.
gene | CDH1-null / parental viability ratio | CDH1-null viability vs mock (fraction of mock) | parental viability vs mock (fraction of mock)
CHST7 | 1.07 | 0.74 | 0.69
F7 | 1.12 | 0.58 | 0.52
PPP1R3F | 0.88 | 0.81 | 0.92
CARD10 | 0.98 | 0.96 | 0.98
VIPR2 | 0.8 | 0.77 | 0.96
DCTN4 | 1.03 | 0.72 | 0.7
ZC3H10 | 0.97 | 0.69 | 0.71
VSNL1 | 1.05 | 1.09 | 1.04
HIKESHI | 1.05 | 0.78 | 0.74
SLC9A7 | 0.88 | 0.91 | 1.03
CFAP157 | 1.25 | 0.75 | 0.6
SLC9C1 | 1.14 | 1.14 | 1
KLF12 | 0.82 | 0.72 | 0.88
TLE1 | 0.97 | 0.69 | 0.71
PCSK1N | 1 | 0.58 | 0.58
PHF13 | 0.99 | 0.94 | 0.95
POLR3B | 0.89 | 0.75 | 0.84
TRPM1 | 1.21 | 0.92 | 0.76
DDA1 | 0.86 | 0.72 | 0.84
PLA2G4F | 1.26 | 0.88 | 0.7
KLRG1 | 0.92 | 0.7 | 0.76
